Here are results for one molecule from patent US20050058645A1.

These are yes or no findings as the source states them, for the method shown. Some binding calls cover weakened binding; strength is not graded here. For some assays here: Sequences can lack the tags named with a protein.

Test [1] has as its target T1, FLAG-tagged IL-4Rα-gp130 chimeric receptor.
T1 sequence: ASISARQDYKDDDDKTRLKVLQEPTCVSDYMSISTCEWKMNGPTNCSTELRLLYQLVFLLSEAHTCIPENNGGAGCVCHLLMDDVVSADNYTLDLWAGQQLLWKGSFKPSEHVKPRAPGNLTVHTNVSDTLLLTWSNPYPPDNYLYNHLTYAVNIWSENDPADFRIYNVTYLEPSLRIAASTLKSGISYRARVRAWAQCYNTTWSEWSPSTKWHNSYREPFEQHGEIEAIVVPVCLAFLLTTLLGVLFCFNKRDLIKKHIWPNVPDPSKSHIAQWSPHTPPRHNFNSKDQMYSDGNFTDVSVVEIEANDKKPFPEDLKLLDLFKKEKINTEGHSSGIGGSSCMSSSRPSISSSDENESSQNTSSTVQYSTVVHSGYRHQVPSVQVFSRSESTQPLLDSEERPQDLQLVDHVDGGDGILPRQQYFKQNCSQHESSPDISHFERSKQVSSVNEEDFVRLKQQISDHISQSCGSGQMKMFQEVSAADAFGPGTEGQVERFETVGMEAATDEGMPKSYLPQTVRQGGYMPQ
The test is described as follows: Western blot of lysates of transfected COS cells after SDS-PAGE, probed with mAb 1D9. Background: A western blot detects proteins with antibodies after separation by electrophoresis.

A further test addresses T2, human IL-13Rα1 (human) (UniProt P78552).
T2 sequence: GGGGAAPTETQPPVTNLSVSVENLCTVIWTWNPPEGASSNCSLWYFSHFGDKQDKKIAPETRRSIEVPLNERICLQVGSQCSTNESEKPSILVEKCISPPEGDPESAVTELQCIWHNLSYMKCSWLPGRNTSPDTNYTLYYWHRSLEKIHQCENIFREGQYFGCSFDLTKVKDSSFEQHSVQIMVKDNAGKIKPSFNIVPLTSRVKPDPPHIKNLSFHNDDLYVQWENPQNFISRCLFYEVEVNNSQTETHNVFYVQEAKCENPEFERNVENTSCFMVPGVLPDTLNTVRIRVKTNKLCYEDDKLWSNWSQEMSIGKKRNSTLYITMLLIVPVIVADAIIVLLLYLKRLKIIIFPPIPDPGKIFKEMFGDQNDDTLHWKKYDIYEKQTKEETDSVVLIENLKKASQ
The test is described as follows: Western blot.

B1: murine monoclonal antibody 1D9 (antibody, IgG1, V domains shown)
VH: EVKLVESGGGLVKPGGSLKLSCAASGFTFSGYGMSWVRQTPEKRLEWVATISGLGGYTYYPDSVKGRFTISRDNAKNTLYLQMSSLRSDDTAFYYCARRFYGDYVGAMDYWGQGTSVTVSS
VL: DILMTQAAFSNPVTLGTSASISCRSSKSLLHSNGITYLYWYLQKPGQSPQLLIYQMSNLASGVPDRFSCSGSGTDFTLSISRVEAEDVGFYYCAQNLELPFTFGSGTKLEIE
Regarding B1, the binding entry in test [1] is recorded as “no binding”; in the test with human IL-13Rα1 (human) it was “binds”.
